Measurements taken from article doi:10.1101/2025.06.01.657267, “IFITM1 and IFITM3 cooperate to restrict virus entry in endolysosomes” (bioRxiv, 2025).

The chains behind the UniProt entries cited, without tags or fusion partners.
UniProt Q01628: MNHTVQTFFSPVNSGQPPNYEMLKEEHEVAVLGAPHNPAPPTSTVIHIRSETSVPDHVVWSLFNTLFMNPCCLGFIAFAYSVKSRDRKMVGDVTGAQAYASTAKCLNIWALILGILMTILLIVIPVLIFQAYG
UniProt P13164: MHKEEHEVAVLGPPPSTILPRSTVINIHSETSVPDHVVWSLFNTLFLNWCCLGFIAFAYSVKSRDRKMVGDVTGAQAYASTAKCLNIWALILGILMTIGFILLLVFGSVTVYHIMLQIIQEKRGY

Molecular target: FLAG-IFITM3 WT (human) (UniProt Q01628)
Assay: affinity purification with mass spectrometry; anti-FLAG (M2) immunoprecipitation from whole cell lysates (1% Triton X-100, 150 mM NaCl) of HEK293T stably expressing FLAG-IFITM3 WT, G95L or Empty Vector; TMT labelling, duplicate MS runs

endogenous IFITM1 (from UniProt P13164 1-125)
binding: binds

Results are given in words; binding and its absence hold for the method and conditions named. In cells and extracts the contact can be indirect. These calls come from enrichment with a bait or labelling near it, and not all partners need be listed.
